## Percent effect of library compounds

Sequences of proteins named here, by UniProt entry; tags and fusion partners are left off.
UniProt P9WNZ1, whole entry: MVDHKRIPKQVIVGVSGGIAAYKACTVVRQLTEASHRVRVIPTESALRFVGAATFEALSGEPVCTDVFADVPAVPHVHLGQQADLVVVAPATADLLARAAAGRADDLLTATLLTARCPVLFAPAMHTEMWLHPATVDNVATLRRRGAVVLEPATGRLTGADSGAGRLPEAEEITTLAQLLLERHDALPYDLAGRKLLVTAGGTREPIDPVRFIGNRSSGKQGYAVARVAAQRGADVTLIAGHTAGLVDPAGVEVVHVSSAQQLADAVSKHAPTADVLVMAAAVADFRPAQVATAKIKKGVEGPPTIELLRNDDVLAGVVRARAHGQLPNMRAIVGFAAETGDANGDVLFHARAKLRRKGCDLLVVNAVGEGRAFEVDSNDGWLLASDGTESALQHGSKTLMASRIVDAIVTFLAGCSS

Measurements from “University of Dundee, Small-Polar-MMV Screening Library” (2021), ChEMBL document CHEMBL3988442.

Each number is a percent effect as filed.
How 0% and 100% were set is not recorded. Most values in the screen are low, and negative values occur.
The compounds are a random part of those screened.

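Enzyme assay of CoaBC with a phosphate dye (Biomol Green) read at 650 nm. Target: Coenzyme A biosynthesis protein CoaBC, Mycobacterium tuberculosis (UniProt P9WNZ1). Compounds at 30 µM. Direction is inferred from only a few compounds that gave an IC50; most scored high, so higher reads as stronger inhibition. Most strong results did not repeat in a second test. Size under these conditions: about 67,000 compounds, about 40 of them at 50% or above in at least one test.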

With Cc1ccsc1CN1CCc2nc3ccsc3c(=O)n2CC1 the screen gave 2.354%. Result for Cc1noc(C)c1-c1ccc(C2CCCN2C(=O)c2cccnc2)nc1 (configuration not stated) was 2.19%. For O=C(CN1CCc2cncnc2C1)NC1CCCCNC1=O (configuration not stated) the result was -20.73%. Result for O=C(c1cccs1)N1CC[C@@H]2[C@H]1CCC(=O)N2c1ccccc1 was 2.843%. Result for CSCCC(NC(N)=O)C(=O)Nc1ccc(-n2cccn2)nc1 (configuration not stated) was 3.558%. With CC(C)c1nc(CNc2nccc(CCC(F)(F)F)n2)cs1 the screen gave 8.261%. CCOCc1nc2c(c(N(C)Cc3ccsc3)n1)CCNCC2 gave 1.583%. COCC1CN(Cc2ccoc2)Cc2cn(CC3CCCC3)nc21 (configuration not stated) gave 6.314%.

For O=S(=O)(CCC1CCCO1)NCc1ncc(-c2ccccc2)o1 (configuration not stated) the result was 3.226%. Cc1ccc(N2CCO[C@H]3CN(Cc4ccc(F)cc4)C[C@H]32)nn1 read -42.39%. Cc1nn(C)c(C)c1-c1nccnc1CC1CCNCC1 read -3.425%. For Fc1ccc(CN2CCC(c3noc(-c4cnccn4)n3)CC2)cc1F the result was -1.865%. CCCc1n[nH]c(C2CN(C(=O)c3cccc4[nH]ncc34)CCO2)n1 (configuration not stated) gave 3.704%. For Cc1cc(C(=O)N2CCCC(n3ccnc3C)C2)c(C)s1 (configuration not stated) the result was 3.644%. COc1ccnc(N2CCN(C(=O)c3cc(C4CC4)[nH]n3)CC2)n1 read -0.8584%. For CN1CC2(CNCCN(C(=O)Nc3ccccc3)C2)CC1=O (configuration not stated) the result was 1.781%.

CC(C)CCN1CCN(Cc2nc(C(C)C)no2)CC1 read -4.292%. CCn1cc(CN(C)S(=O)(=O)N2CCCC2c2ccco2)cn1 (configuration not stated) gave -8.12%. With Cn1ccnc1CN1CCC(c2nnc(Cn3cccn3)n2C)CC1 the screen gave -0.5102%. CN(C)CCN1CCC2(CCN(C(=O)c3cccnc3)CC2)C1=O gave 0.4706%. For CN(C)CCCn1cnc2cc(NC(=O)c3n[nH]c4c3CCC4)ccc21 the result was 2.123%. For Cc1cc(C(=O)N2CC[C@]3(C[C@@H](OCc4ccccn4)CO3)C2)c(C)o1 the result was 0.5%. Result for O=C(Cn1cc(C(=O)O)ccc1=O)Nc1ccc(F)cc1Cl was 9.556%. OCC1CCCN(c2ncnc3c2Cc2ccccc2OC3)C1 (configuration not stated) read 5.093%.

Result for Cn1ncnc1NCc1ccc(Br)cc1 was 4.642%. With O=C(Nc1ccccc1Cn1cccn1)N1CCC(N2CCCC2)C1 (configuration not stated) the screen gave 4.018%. For COc1cccc(CN(C)Cc2cccc(C#N)c2)c1OC the result was 0.6211%. With CC(=O)N1CC[C@H]2OCC[C@@H](C(=O)NCc3ccco3)[C@H]2C1 the screen gave 3.448%. CCOc1ccc(C(=O)N2CCCC(c3nccn3C)C2)cc1OCC (configuration not stated) read -1.684%. For NC(=O)c1ccc(N2CCCCC2)c(NC(=O)c2ccc(F)cc2Cl)c1 the result was 5.481%.

2 of the entries, repeated:

- O=C(Nc1ccccc1Cn1cccn1)N1CCC(N2CCCC2)C1 (configuration not stated) : 4.018%
- COCC1CN(Cc2ccoc2)Cc2cn(CC3CCCC3)nc21 (configuration not stated) : 6.314%